# Source: the supplement of paper PMC12823440, “Inhibitors supercharge kinase turnover through native proteolytic circuits” (Nature, 2025)
# By UniProt entry, the sequences of proteins in these tests, tags left out. Where a name states a change or a piece, a line headed by the entry shows the natural chain unless it says otherwise.
# UniProt Q8IWU2: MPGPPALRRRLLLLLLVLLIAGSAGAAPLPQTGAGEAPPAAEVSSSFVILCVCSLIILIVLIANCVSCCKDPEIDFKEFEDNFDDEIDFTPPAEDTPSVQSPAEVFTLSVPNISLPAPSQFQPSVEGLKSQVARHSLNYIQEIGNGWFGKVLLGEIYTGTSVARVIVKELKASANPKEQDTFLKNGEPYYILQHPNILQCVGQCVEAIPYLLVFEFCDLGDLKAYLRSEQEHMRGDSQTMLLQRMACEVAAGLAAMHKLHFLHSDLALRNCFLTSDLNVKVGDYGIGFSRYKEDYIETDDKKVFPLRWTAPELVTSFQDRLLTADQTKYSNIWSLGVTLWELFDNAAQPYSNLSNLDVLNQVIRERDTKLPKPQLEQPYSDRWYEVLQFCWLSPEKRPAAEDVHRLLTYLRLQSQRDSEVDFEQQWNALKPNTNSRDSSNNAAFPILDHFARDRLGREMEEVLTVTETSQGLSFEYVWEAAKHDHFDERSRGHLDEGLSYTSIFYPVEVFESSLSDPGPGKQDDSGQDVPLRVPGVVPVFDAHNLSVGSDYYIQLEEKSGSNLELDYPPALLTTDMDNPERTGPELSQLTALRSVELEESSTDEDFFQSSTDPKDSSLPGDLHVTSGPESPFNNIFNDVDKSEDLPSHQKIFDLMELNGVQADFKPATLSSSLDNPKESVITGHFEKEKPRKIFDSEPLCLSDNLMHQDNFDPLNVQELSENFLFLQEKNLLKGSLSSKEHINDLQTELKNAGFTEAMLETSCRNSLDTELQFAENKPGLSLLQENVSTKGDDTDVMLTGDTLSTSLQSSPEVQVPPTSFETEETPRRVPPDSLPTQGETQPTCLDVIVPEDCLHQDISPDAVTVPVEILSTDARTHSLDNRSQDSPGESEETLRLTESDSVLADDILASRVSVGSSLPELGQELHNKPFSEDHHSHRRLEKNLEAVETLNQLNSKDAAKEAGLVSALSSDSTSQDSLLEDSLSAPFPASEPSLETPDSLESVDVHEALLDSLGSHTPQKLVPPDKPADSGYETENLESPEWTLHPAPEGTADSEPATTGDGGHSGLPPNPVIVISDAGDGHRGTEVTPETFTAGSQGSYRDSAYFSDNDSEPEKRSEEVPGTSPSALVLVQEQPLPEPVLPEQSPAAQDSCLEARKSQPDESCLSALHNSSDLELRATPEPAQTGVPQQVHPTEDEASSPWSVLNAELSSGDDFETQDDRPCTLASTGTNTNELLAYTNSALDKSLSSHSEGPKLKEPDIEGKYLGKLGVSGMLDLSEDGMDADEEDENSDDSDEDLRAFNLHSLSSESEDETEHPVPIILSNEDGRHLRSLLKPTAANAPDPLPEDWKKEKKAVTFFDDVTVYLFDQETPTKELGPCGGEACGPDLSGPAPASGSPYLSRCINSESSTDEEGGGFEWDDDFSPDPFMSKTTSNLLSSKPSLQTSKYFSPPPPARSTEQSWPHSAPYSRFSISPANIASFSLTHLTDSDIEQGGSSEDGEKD
# UniProt P07948: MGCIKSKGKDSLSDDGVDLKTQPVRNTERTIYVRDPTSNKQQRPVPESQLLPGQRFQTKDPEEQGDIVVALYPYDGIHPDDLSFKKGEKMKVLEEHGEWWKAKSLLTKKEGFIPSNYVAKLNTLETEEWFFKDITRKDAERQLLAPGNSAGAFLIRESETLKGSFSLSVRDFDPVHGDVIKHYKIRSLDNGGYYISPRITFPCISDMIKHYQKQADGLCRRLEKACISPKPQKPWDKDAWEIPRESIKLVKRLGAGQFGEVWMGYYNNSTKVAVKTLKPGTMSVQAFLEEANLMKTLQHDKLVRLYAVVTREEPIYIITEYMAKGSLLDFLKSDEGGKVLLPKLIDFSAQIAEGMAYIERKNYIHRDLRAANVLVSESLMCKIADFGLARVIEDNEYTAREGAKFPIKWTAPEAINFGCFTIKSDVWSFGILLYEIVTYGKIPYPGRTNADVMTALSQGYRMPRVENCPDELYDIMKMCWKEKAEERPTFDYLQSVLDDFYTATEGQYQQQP
# UniProt P28482, whole entry: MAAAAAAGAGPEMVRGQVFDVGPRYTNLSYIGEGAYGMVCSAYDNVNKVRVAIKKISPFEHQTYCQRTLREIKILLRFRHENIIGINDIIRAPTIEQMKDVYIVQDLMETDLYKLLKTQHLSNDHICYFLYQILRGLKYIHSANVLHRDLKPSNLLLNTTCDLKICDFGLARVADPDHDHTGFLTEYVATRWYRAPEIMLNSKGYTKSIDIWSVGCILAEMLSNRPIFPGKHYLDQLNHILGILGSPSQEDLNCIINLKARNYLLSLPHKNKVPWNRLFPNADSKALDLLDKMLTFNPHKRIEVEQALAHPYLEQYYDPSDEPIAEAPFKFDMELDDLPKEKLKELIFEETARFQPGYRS
# UniProt P49137, whole entry, looked up: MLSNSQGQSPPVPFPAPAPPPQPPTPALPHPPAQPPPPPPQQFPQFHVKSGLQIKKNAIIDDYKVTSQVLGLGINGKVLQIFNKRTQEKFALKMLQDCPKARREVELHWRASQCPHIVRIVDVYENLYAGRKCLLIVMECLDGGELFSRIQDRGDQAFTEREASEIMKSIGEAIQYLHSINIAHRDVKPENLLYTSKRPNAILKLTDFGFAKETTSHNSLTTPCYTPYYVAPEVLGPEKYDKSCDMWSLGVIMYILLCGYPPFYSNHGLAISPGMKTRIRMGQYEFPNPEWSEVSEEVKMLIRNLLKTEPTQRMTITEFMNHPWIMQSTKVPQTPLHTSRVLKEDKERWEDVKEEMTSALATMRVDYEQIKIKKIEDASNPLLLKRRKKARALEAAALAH
# UniProt Q16288, whole entry, looked up: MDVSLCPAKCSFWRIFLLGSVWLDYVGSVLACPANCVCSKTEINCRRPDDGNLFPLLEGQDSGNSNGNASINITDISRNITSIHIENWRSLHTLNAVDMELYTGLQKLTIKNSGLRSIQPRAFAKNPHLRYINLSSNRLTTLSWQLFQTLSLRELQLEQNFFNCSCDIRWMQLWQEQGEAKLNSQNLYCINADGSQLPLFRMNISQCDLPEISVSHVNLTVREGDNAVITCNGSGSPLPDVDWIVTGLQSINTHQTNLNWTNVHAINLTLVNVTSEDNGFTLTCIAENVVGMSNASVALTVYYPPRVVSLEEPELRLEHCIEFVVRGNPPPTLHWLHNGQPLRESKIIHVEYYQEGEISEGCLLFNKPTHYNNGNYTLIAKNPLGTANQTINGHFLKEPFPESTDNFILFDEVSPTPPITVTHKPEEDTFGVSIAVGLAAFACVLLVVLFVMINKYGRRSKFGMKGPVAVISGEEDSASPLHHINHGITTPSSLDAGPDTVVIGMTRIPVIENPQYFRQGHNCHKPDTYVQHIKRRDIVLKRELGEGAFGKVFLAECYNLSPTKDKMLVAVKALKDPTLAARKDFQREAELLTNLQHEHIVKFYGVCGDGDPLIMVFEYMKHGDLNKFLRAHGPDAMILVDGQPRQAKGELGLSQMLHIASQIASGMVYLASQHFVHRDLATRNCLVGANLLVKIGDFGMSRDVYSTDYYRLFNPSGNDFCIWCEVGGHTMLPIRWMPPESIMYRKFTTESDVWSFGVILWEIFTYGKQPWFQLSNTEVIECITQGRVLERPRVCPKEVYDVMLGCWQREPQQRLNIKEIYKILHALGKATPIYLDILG
# UniProt O96013: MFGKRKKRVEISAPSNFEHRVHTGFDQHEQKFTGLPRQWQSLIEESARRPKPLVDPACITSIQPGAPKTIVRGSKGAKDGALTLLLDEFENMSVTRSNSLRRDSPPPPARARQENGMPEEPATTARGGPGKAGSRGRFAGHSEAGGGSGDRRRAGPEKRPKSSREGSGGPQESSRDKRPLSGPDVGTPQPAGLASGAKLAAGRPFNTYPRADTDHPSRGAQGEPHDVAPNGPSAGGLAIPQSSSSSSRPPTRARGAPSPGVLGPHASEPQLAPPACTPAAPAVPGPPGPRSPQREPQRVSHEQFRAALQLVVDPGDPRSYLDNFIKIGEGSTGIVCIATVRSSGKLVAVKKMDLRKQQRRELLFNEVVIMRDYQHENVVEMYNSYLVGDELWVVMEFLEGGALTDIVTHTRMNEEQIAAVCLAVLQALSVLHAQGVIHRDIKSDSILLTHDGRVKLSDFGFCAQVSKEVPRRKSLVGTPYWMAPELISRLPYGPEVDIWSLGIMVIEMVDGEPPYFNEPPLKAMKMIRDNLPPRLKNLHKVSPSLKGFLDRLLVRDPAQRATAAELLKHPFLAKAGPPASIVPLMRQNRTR
# UniProt Q96KB5: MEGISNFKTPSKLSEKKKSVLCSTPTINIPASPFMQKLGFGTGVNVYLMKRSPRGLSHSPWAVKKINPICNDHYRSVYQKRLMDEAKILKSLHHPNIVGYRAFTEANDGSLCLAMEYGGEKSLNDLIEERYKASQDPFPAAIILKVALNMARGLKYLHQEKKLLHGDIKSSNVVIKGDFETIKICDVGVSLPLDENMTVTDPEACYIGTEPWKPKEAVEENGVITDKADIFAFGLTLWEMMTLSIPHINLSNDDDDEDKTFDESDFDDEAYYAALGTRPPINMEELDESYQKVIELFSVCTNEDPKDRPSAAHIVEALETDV
# UniProt O15530: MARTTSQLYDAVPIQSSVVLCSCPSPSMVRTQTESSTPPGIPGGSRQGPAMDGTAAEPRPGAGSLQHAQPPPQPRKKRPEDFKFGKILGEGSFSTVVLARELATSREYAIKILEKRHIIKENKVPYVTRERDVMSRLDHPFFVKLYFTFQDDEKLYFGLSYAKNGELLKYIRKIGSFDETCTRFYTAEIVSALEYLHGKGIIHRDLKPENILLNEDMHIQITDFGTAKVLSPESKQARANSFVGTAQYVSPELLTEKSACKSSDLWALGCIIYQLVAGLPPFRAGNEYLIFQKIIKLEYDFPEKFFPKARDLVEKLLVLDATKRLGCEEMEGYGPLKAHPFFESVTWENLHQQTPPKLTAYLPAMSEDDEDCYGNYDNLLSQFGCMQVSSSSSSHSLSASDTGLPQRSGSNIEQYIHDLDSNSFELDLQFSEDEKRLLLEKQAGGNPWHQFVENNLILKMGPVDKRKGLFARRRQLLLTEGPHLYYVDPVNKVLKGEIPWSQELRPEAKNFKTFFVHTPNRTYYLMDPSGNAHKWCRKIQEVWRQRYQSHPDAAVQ
# UniProt Q9UBF8: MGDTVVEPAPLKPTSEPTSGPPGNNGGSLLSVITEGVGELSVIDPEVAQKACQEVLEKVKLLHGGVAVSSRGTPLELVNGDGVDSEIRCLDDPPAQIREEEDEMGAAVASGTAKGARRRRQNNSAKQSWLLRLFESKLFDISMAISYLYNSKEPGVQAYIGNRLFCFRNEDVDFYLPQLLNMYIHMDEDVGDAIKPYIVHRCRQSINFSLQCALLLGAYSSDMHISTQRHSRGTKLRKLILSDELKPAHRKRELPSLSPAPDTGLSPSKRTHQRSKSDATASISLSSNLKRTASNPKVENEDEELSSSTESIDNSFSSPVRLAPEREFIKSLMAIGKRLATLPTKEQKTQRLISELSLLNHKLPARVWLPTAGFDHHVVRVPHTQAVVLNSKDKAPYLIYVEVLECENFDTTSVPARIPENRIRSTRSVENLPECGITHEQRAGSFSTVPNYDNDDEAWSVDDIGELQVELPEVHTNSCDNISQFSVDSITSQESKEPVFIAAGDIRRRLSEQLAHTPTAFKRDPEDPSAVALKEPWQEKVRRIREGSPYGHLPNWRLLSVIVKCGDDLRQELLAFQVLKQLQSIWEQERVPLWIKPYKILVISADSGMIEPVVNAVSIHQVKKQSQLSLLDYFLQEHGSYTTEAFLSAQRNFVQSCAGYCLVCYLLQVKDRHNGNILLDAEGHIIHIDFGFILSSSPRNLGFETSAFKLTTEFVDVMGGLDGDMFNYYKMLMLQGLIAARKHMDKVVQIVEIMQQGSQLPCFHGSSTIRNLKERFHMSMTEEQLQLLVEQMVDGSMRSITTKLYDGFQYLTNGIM
# UniProt Q13131: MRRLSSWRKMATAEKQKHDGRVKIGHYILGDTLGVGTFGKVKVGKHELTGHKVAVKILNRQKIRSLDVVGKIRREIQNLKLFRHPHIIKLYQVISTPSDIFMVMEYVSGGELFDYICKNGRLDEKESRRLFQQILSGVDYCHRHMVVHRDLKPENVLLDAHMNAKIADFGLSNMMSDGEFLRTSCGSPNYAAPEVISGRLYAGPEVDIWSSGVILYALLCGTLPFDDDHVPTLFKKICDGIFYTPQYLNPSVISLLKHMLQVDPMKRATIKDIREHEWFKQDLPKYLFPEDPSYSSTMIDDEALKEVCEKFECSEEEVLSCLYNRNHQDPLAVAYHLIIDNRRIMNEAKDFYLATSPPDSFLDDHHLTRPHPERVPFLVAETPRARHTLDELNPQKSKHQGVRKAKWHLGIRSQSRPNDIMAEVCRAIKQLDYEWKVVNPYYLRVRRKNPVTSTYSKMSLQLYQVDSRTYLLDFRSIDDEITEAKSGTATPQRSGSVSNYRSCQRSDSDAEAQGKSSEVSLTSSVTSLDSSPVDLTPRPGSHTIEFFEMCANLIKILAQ
# The other results are listed elsewhere or left out. Hit calls seldom repeat between salt and free forms of one compound.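 In K562 cells expressing nanoluciferase-fused kinases, luminescence was recorded at 4 h intervals between 2 and 18 h, normalized as percent of control with DMSO at 100% and a positive control at 0%. A significant (2 sigma) signal drop marks a time point as decreased. The authors' rule for a hit is not shown and takes in more than the number of time points.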
# Assays:
# Assay in all cases: number of time points (of 5) at which kinase-Nluc abundance scored as decreased, DMSO-normalised (count); higher = more persistent destabilization
# Conditions in all cases: K562; 2-18 h
# LMTK2 = LMTK2 (UniProt Q8IWU2)
# LYN = LYN (UniProt P07948)
# MAP2K1 = MAP2K1 (UniProt Q02750)
# MAP2K2 = MAP2K2 (UniProt P36507)
# MAP4K2 = MAP4K2 (UniProt Q12851)
# MAPK1 = MAPK1 (UniProt P28482)
# MAPK4 = MAPK4 (UniProt P31152)
# MAPKAPK2 = MAPKAPK2 (UniProt P49137)
# MKNK1 = MKNK1 (UniProt Q9BUB5)
# NTRK2 = NTRK2 (UniProt Q16620)
# NTRK3 = NTRK3 (UniProt Q16288)
# PAK4 = PAK4 (UniProt O96013)
# PBK = PBK (UniProt Q96KB5)
# PDGFRB = PDGFRB (UniProt P09619)
# PDK1 = PDK1 (UniProt Q15118)
# PDPK1 = PDPK1 (UniProt O15530)
# PIK4CA = PIK4CA (UniProt P42356)
# PIK4CB = PIK4CB (UniProt Q9UBF8)
# PLK1 = PLK1 (UniProt P53350)
# PRKAA1 = PRKAA1 (UniProt Q13131)
Structure (SMILES),number of time points (LMTK2),number of time points (LYN),number of time points (MAP2K1),number of time points (MAP2K2),number of time points (MAP4K2),number of time points (MAPK1),number of time points (MAPK4),number of time points (MAPKAPK2),number of time points (MKNK1),number of time points (NTRK2),number of time points (NTRK3),number of time points (PAK4),number of time points (PBK),number of time points (PDGFRB),number of time points (PDK1),number of time points (PDPK1),number of time points (PIK4CA),number of time points (PIK4CB),number of time points (PLK1),number of time points (PRKAA1)
CN1CCN(c2ccc(-c3ccncc3-c3cc(F)c(O)c(F)c3)cc2)CC1 (10 µM),0,0,0,0,0,0,0,0,0,0,0,0,0,0,0,0,0,0,0,0
Cc1n[nH]c2ncc(C(=O)N3CCC[C@H]3c3ccc(Cl)cc3)cc12 (10 µM),0,0,0,0,0,0,0,0,0,0,0,0,0,0,0,0,0,0,0,0
Cc1ccc(C2CC(=O)NC(SCC(=O)Nc3nccs3)=C2C#N)cc1 (stereo not given) [Necrostatin-34] (10 µM),0,0,0,0,0,0,0,0,0,0,0,0,0,0,0,0,0,0,0,0
CNCCOc1ccccc1C1(Nc2nccn(-c3cc(C(=O)NC4CC4)cc(F)c3C)c2=O)CC1 (10 µM),0,0,0,0,0,0,0,0,0,0,0,0,0,0,0,0,0,0,0,0
CCOc1cc(=O)[nH]cc1-c1ccc(CC(=O)Nc2cc(C(C)(C)C(F)(F)F)on2)c(F)c1 (10 µM),0,0,0,0,0,0,0,0,0,0,0,0,0,0,0,0,0,0,0,0
CC1(C)CN(C(=O)c2ccc(-c3cccc4nc(NC(=O)C5CC5)nn34)cc2)C1 [Solcitinib] (10 µM),0,0,0,0,0,0,0,0,0,0,0,0,0,0,0,0,0,0,0,0
CCCS(=O)(=O)N[C@H]1C[C@@H](N(C)c2ncnc3[nH]ccc23)C1 [Abrocitinib] (10 µM),0,0,0,0,0,0,0,0,0,0,0,0,0,0,0,0,0,0,0,0
Cc1ncc(-c2cc(F)c(O)c(F)c2)cc1-c1cc(F)c(O)c(F)c1 (10 µM),0,0,0,0,0,0,0,0,0,0,0,0,0,0,0,0,0,0,0,0
Cc1ccc(Nc2cc(N[C@@H]3CCCC[C@@H]3N)nnc2C(N)=O)nc1C (2 µM),0,0,0,0,0,0,0,0,0,0,0,0,0,0,0,0,0,0,0,0
CCOC(=O)c1c(Nc2ccccc2Cl)oc(/C=C2\C=Nc3ncccc32)c1O (10 µM),0,0,0,0,0,0,0,0,0,0,0,0,0,0,0,0,0,0,0,0
COc1ccc(Br)c(C=O)c1O [6-Bromo-2-hydroxy-3-methoxybenzaldehyde] (10 µM),0,0,0,0,0,0,0,0,0,0,0,0,0,0,0,0,0,0,0,0
CCc1c(C(=O)NNC(=O)[C@H](O)c2cc(F)cc(F)c2)ccc(O)c1C (10 µM),0,0,0,0,0,0,0,0,0,0,0,0,0,0,0,0,0,0,0,0
NCCNS(=O)(=O)c1ccc(Cl)c2ccncc12 [CKI-7 (free base)] (10 µM),0,0,0,0,0,0,0,0,0,0,0,0,0,0,0,0,0,0,0,0
C[C@@H](NC(=O)c1ncnc(N)c1Cl)c1ncc(C(=O)Nc2cc(C(F)(F)F)c(Cl)cn2)s1 (2.5 µM),0,0,0,0,0,0,0,1,2,1,2,0,0,2,0,4,2,2,0,2
O=C1OC(COc2ccccc2[N+](=O)[O-])CC1Cc1ccccc1 (stereo not given) (10 µM),0,0,0,0,0,0,0,0,0,0,0,0,0,0,0,0,0,0,0,0
CS(=O)(=O)c1ccc([C@@H](CC2CCCC2)C(=O)Nc2nccs2)cc1 (10 µM),0,0,0,0,0,0,0,0,0,0,0,0,0,0,0,0,0,0,0,0
CC(C)Cn1ncc2cc(Oc3ccc(F)cc3F)c(C(=O)NCCN(C)C)cc21 [p38α inhibitor 1] (10 µM),0,0,0,0,0,0,0,0,0,0,0,0,0,0,0,0,0,0,0,0
Cc1nn(CC(F)(F)F)cc1Nc1ncc(Br)c(NCc2ccc(S(N)(=O)=O)cc2)n1 (10 µM),0,0,0,0,0,0,0,0,0,0,0,0,0,0,0,0,0,0,0,0
COc1c(O)cc(O)c2c(=O)cc(-c3ccccc3)oc12 [Wogonin] (10 µM),0,0,0,0,0,0,0,0,0,0,0,0,0,0,0,0,0,0,0,0
C[C@@H]1CN(Cc2ccc(F)cc2)[C@@H](C)CN1C(=O)c1cc2c(C(=O)C(=O)N(C)C)cn(C)c2cc1Cl [Talmapimod] (10 µM),0,0,0,0,0,0,0,0,0,0,0,0,0,0,0,0,0,0,0,0
CC(=O)Nc1nc(C)c(-c2cc(C)c3c(c2)CN([C@@H](C)C2CC2)C3=O)s1 (10 µM),0,0,0,0,0,0,0,0,0,0,0,0,0,0,0,0,0,0,0,0
COc1cc2ncnc(Nc3cc(Br)c(O)c(Br)c3)c2cc1OC (2.5 µM),0,0,0,0,0,0,0,0,0,0,0,0,0,0,0,0,0,0,0,0
CN(C)c1ccc(/C=C2\C(=O)Nc3ccccc32)c2ccccc12 (10 µM),0,1,0,0,0,0,0,0,0,0,0,0,0,0,0,0,0,0,0,0
CC(C)n1c(CO)nc2c(F)cc(-c3nc(Nc4ccc(CN5CCNCC5)cn4)ncc3F)cc21 (10 µM),3,1,0,0,0,0,0,0,2,3,3,0,0,3,0,2,3,3,1,3

# Some of these compounds in order of heavy-atom count, low to high.
Structure (SMILES),number of time points (LMTK2),number of time points (LYN),number of time points (MAP2K1),number of time points (MAP2K2),number of time points (MAP4K2),number of time points (MAPK1),number of time points (MAPK4),number of time points (MAPKAPK2),number of time points (MKNK1),number of time points (NTRK2),number of time points (NTRK3),number of time points (PAK4),number of time points (PBK),number of time points (PDGFRB),number of time points (PDK1),number of time points (PDPK1),number of time points (PIK4CA),number of time points (PIK4CB),number of time points (PLK1),number of time points (PRKAA1)
CCCS(=O)(=O)N[C@H]1C[C@@H](N(C)c2ncnc3[nH]ccc23)C1 [Abrocitinib] (10 µM),0,0,0,0,0,0,0,0,0,0,0,0,0,0,0,0,0,0,0,0
Cc1nn(CC(F)(F)F)cc1Nc1ncc(Br)c(NCc2ccc(S(N)(=O)=O)cc2)n1 (10 µM),0,0,0,0,0,0,0,0,0,0,0,0,0,0,0,0,0,0,0,0
CCOc1cc(=O)[nH]cc1-c1ccc(CC(=O)Nc2cc(C(C)(C)C(F)(F)F)on2)c(F)c1 (10 µM),0,0,0,0,0,0,0,0,0,0,0,0,0,0,0,0,0,0,0,0
